Measurements reported in PubChem BioAssay AID1259254 (NCATS, 2017)

Assay: 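Genome-wide screen for genes that prevent DNA re-replication in cancer cells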 (primary screen)
System: human HCT116 colorectal cancer cells
Reagents: single siRNA against human genes
Timing: 3 days
Measured: 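Imaged Hoechst DNA stain sorts each cell into a cycle phase by DNA amount; per plate, G2 fraction set to 0% for non-targeting and 100% for GMNN siRNA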
Direction: G2 robust z-score: higher = more G2 cells, more excess DNA replication
Active means: 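Active siRNAs have a G2 robust z of 5 or more median absolute deviations over the median, which in these data means about 38% or higher of GMNN control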
This is an unselected part of about 59,000 deposited reagents. About 1,550 of all reagents (2.6%) count as active. 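G2 share is only a proxy for re-replication; each gene was hit by three separate siRNAs, and active genes were retested.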 Reagents against one gene are numbered here. Further read-outs or replicates are left out here. No sequences are given here. The record does not give: the amount of reagent.

LMNA (GeneID 4000) #1
- G2 robust z-score: 0.628
- Outcome: inactive

LMNA (GeneID 4000) #2
- G2 robust z-score: 6.06
- Outcome: active

LMNA (GeneID 4000) #3
- G2 robust z-score: 2.25
- Outcome: inactive

ERV3-1 (GeneID 2086) #1
- G2 robust z-score: 0.956
- Outcome: inactive

ERV3-1 (GeneID 2086) #2
- G2 robust z-score: 0.0923
- Outcome: inactive

ERV3-1 (GeneID 2086) #3
- G2 robust z-score: 0.914
- Outcome: inactive

ADAM33 (GeneID 80332) #1
- G2 robust z-score: -1.12
- Outcome: inactive

ADAM33 (GeneID 80332) #2
- G2 robust z-score: 1.83
- Outcome: inactive

ADAM33 (GeneID 80332) #3
- G2 robust z-score: 5.8
- Outcome: active

Hits, among the entries above:
LMNA (GeneID 4000) #2
- G2 robust z-score: 6.06
- Outcome: active

ADAM33 (GeneID 80332) #3
- G2 robust z-score: 5.8
- Outcome: active

Next records follow.
ARFGEF1 (GeneID 10565) #1
- G2 robust z-score: -1.2
- Outcome: inactive

ARFGEF1 (GeneID 10565) #2
- G2 robust z-score: -0.778
- Outcome: inactive

ARFGEF1 (GeneID 10565) #3
- G2 robust z-score: 1.32
- Outcome: inactive

UBE2J2 (GeneID 118424) #1
- G2 robust z-score: -0.536
- Outcome: inactive

UBE2J2 (GeneID 118424) #2
- G2 robust z-score: -0.195
- Outcome: inactive

UBE2J2 (GeneID 118424) #3
- G2 robust z-score: 0.409
- Outcome: inactive

CNOT2 (GeneID 4848) #1
- G2 robust z-score: 0.0141
- Outcome: inactive

CNOT2 (GeneID 4848) #2
- G2 robust z-score: 0.0342
- Outcome: inactive

CNOT2 (GeneID 4848) #3
- G2 robust z-score: 0.792
- Outcome: inactive

GNG8 (GeneID 94235) #1
- G2 robust z-score: 0.178
- Outcome: inactive

GNG8 (GeneID 94235) #2
- G2 robust z-score: -0.0372
- Outcome: inactive

GNG8 (GeneID 94235) #3
- G2 robust z-score: -0.305
- Outcome: inactive

VN1R2 (GeneID 317701) #1
- G2 robust z-score: -1.07
- Outcome: inactive

VN1R2 (GeneID 317701) #2
- G2 robust z-score: 0.295
- Outcome: inactive

VN1R2 (GeneID 317701) #3
- G2 robust z-score: 0.908
- Outcome: inactive
